Results published in the supplement of paper PMC7661543.
Differences between knockout arms are mostly noise.

Test system: MDA-MB-231
Test: relative cell number vs DMSO control (72 h) (% of DMSO); higher = less growth inhibition (more cells)
Procedure: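 QMAP-Seq: a pool of 5 breast cancer cell lines (ZR-75-1, SKBR3, HCC-38, MDA-MB-231, BT-20), each carrying 12 doxycycline-inducible Cas9 sgRNA perturbations (11 knockouts plus non-targeting sgNT), was treated with compounds for 72 h at four 10-fold doses (10 nM-10 uM or 1 nM-1 uM range). Barcodes were amplified and sequenced, and cell number was interpolated from 293T spike-in standard curves. The result is expressed as % of the median of DMSO wells. Two biological replicates.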

Cc1cc2c(F)c(Oc3ncnn4cc(OC[C@@H](C)O)c(C)c34)ccc2[nH]1 [Brivanib]
Settings	relative cell number
sgRNA knockout: sgATF3, 10 nM	108
sgRNA knockout: sgATF3, 100 nM	94.7
sgRNA knockout: sgATF3, 1000 nM	96.5
sgRNA knockout: sgATF3, 10000 nM	64.1
sgRNA knockout: sgATF4, 10 nM	107
sgRNA knockout: sgATF4, 100 nM	63.8
sgRNA knockout: sgATF4, 1000 nM	103
sgRNA knockout: sgATF4, 10000 nM	73.4
sgRNA knockout: sgATF6, 10 nM	100
sgRNA knockout: sgATF6, 100 nM	99.3
sgRNA knockout: sgATF6, 1000 nM	96.8
sgRNA knockout: sgATF6, 10000 nM	64.4
sgRNA knockout: sgATG7, 10 nM	104
sgRNA knockout: sgATG7, 100 nM	90.7
sgRNA knockout: sgATG7, 1000 nM	90.3
sgRNA knockout: sgATG7, 10000 nM	64.04
sgRNA knockout: sgERN1, 10 nM	122
sgRNA knockout: sgERN1, 100 nM	90.2
sgRNA knockout: sgERN1, 1000 nM	109
sgRNA knockout: sgERN1, 10000 nM	71.7
sgRNA knockout: sgHSF1, 10 nM	114
sgRNA knockout: sgHSF1, 100 nM	67.9
sgRNA knockout: sgHSF1, 1000 nM	99
sgRNA knockout: sgHSF1, 10000 nM	62.7
sgRNA knockout: sgHSF2, 10 nM	85
sgRNA knockout: sgHSF2, 100 nM	97.8
sgRNA knockout: sgHSF2, 1000 nM	88.8
sgRNA knockout: sgHSF2, 10000 nM	57.7
sgRNA knockout: sgKEAP1, 10 nM	104
sgRNA knockout: sgKEAP1, 100 nM	90.6
sgRNA knockout: sgKEAP1, 1000 nM	106
sgRNA knockout: sgKEAP1, 10000 nM	53.8
sgRNA knockout: sgNFE2L2, 10 nM	111
sgRNA knockout: sgNFE2L2, 100 nM	81.6
sgRNA knockout: sgNFE2L2, 1000 nM	112
sgRNA knockout: sgNFE2L2, 10000 nM	68.3
sgRNA knockout: sgSLC35F2, 10 nM	99.3
sgRNA knockout: sgSLC35F2, 100 nM	92.5
sgRNA knockout: sgSLC35F2, 1000 nM	97.7
sgRNA knockout: sgSLC35F2, 10000 nM	46
sgRNA knockout: sgXBP1, 10 nM	111
sgRNA knockout: sgXBP1, 100 nM	81.7
sgRNA knockout: sgXBP1, 1000 nM	114
sgRNA knockout: sgXBP1, 10000 nM	73.9

O=C(O)CC[C@H]1CC[C@@](c2cc(F)ccc2F)(S(=O)(=O)c2ccc(Cl)cc2)CC1 [MK0752]
Settings	relative cell number
sgRNA knockout: sgATF3, 10 nM	163
sgRNA knockout: sgATF3, 100 nM	118
sgRNA knockout: sgATF3, 1000 nM	122
sgRNA knockout: sgATF3, 10000 nM	119
sgRNA knockout: sgATF4, 10 nM	210
sgRNA knockout: sgATF4, 100 nM	154
sgRNA knockout: sgATF4, 1000 nM	135
sgRNA knockout: sgATF4, 10000 nM	145
sgRNA knockout: sgATF6, 10 nM	128
sgRNA knockout: sgATF6, 100 nM	116
sgRNA knockout: sgATF6, 1000 nM	105
sgRNA knockout: sgATF6, 10000 nM	102
sgRNA knockout: sgATG7, 10 nM	127
sgRNA knockout: sgATG7, 100 nM	94.6
sgRNA knockout: sgATG7, 1000 nM	104
sgRNA knockout: sgATG7, 10000 nM	96.8
sgRNA knockout: sgERN1, 10 nM	128
sgRNA knockout: sgERN1, 100 nM	102
sgRNA knockout: sgERN1, 1000 nM	118
sgRNA knockout: sgERN1, 10000 nM	93.4
sgRNA knockout: sgHSF1, 10 nM	109
sgRNA knockout: sgHSF1, 100 nM	115
sgRNA knockout: sgHSF1, 1000 nM	101
sgRNA knockout: sgHSF1, 10000 nM	104
sgRNA knockout: sgHSF2, 10 nM	146
sgRNA knockout: sgHSF2, 100 nM	109
sgRNA knockout: sgHSF2, 1000 nM	107
sgRNA knockout: sgHSF2, 10000 nM	128
sgRNA knockout: sgKEAP1, 10 nM	115
sgRNA knockout: sgKEAP1, 100 nM	94.3
sgRNA knockout: sgKEAP1, 1000 nM	109
sgRNA knockout: sgKEAP1, 10000 nM	118
sgRNA knockout: sgNFE2L2, 10 nM	110
sgRNA knockout: sgNFE2L2, 100 nM	118
sgRNA knockout: sgNFE2L2, 1000 nM	117
sgRNA knockout: sgNFE2L2, 10000 nM	112
sgRNA knockout: sgSLC35F2, 10 nM	143
sgRNA knockout: sgSLC35F2, 100 nM	130
sgRNA knockout: sgSLC35F2, 1000 nM	94.3
sgRNA knockout: sgSLC35F2, 10000 nM	137
sgRNA knockout: sgXBP1, 10 nM	138
sgRNA knockout: sgXBP1, 100 nM	132
sgRNA knockout: sgXBP1, 1000 nM	124
sgRNA knockout: sgXBP1, 10000 nM	120

Cn1c(CCCC(=O)O)nc2cc(N(CCCl)CCCl)ccc21 [Bendamustine]
Settings	relative cell number
sgRNA knockout: sgATF3, 10 nM	116
sgRNA knockout: sgATF3, 100 nM	117
sgRNA knockout: sgATF3, 1000 nM	111
sgRNA knockout: sgATF3, 10000 nM	139
sgRNA knockout: sgATF4, 10 nM	116
sgRNA knockout: sgATF4, 100 nM	167
sgRNA knockout: sgATF4, 1000 nM	137
sgRNA knockout: sgATF4, 10000 nM	206
sgRNA knockout: sgATF6, 10 nM	106
sgRNA knockout: sgATF6, 100 nM	110
sgRNA knockout: sgATF6, 1000 nM	100
sgRNA knockout: sgATF6, 10000 nM	141
sgRNA knockout: sgATG7, 10 nM	93.4
sgRNA knockout: sgATG7, 100 nM	117
sgRNA knockout: sgATG7, 1000 nM	125
sgRNA knockout: sgATG7, 10000 nM	140
sgRNA knockout: sgERN1, 10 nM	80.6
sgRNA knockout: sgERN1, 100 nM	112
sgRNA knockout: sgERN1, 1000 nM	111
sgRNA knockout: sgERN1, 10000 nM	132
sgRNA knockout: sgHSF1, 10 nM	107
sgRNA knockout: sgHSF1, 100 nM	95.1
sgRNA knockout: sgHSF1, 1000 nM	105
sgRNA knockout: sgHSF1, 10000 nM	134
sgRNA knockout: sgHSF2, 10 nM	124
sgRNA knockout: sgHSF2, 100 nM	103
sgRNA knockout: sgHSF2, 1000 nM	109
sgRNA knockout: sgHSF2, 10000 nM	124
sgRNA knockout: sgKEAP1, 10 nM	101
sgRNA knockout: sgKEAP1, 100 nM	107
sgRNA knockout: sgKEAP1, 1000 nM	98.8
sgRNA knockout: sgKEAP1, 10000 nM	126
sgRNA knockout: sgNFE2L2, 10 nM	119
sgRNA knockout: sgNFE2L2, 100 nM	105
sgRNA knockout: sgNFE2L2, 1000 nM	95.5
sgRNA knockout: sgNFE2L2, 10000 nM	134
sgRNA knockout: sgSLC35F2, 10 nM	121
sgRNA knockout: sgSLC35F2, 100 nM	110
sgRNA knockout: sgSLC35F2, 1000 nM	96.4
sgRNA knockout: sgSLC35F2, 10000 nM	113
sgRNA knockout: sgXBP1, 10 nM	99.5
sgRNA knockout: sgXBP1, 100 nM	113
sgRNA knockout: sgXBP1, 1000 nM	118
sgRNA knockout: sgXBP1, 10000 nM	123
